In patent US12527818B2, “Platinum-based chemotherapy, mast binding agents, glucocorticoid receptor (GR) binding agents, and/or HSP90 binding agents for uses in treating cancer” (Emory University, priority 2019, dated 2026):
At least one structure is not confirmed: it was looked up by name or label, or the drawing left a doubt.

What was measured:
[1] = system: ovarian cancer and head and neck cancer PDX; test: Tumor volume in PDX mice treated with cisplatin, dexamethasone and lestaurtinib; type: in vivo; details: 5 mg/kg cisplatin, 0.1 mg/kg dexamethasone twice/week, 20 mg/kg lestaurtinib daily
Procedure: Tumor volumes were measured by caliper.
Therefore, we performed pilot experiments in vitro and in vivo to examine the concept.

KB-3-1 and A2780 cells = test: Cell viability of dexamethasone and cisplatin-treated cancer cells with lestaurtinib; type: cell-based, human; details: 5 μg/ml cisplatin, 500 nM dexamethasone, 100 nM lestaurtinib

With `C[C@]12O[C@H](C[C@]1(O)CO)n1c3ccccc3c3c4c(c5c6ccccc6n2c5c31)CNC4=O` [lestaurtinib, 6-hydroxy-6-(hydroxymethyl)-5-methyl-5,6,7,8,14,15-hexahydro-13H-16-oxa-4b,8a,14-triaza-5,8-methanodibenzo[b,h]cycloocta[jkl]cyclopenta[e]-as-indacen-13-one] as the compound, how does the “tumor growth (tumor volume)” value [1] read?
Its value is “dramatically attenuates the tumor growth enhanced by dexamethasone treatment”.

And the cell viability (KB-3-1 and A2780 cells)?
Its cell viability is “effectively attenuated”.
